Test results: PubChem BioAssay (NCATS)
The inconclusive results got no clear call from the source; some entries with a clear call stand among them for comparison. For some assays here: Where the call is inconclusive, the potency comes from a doubtful curve fit. The source made the active and inactive calls. Calls follow the shape of the dose curve; as a rule, active = well fitted cell-killing curve with a large enough effect; inconclusive = small, poorly fitted or top-dose-only effect, or effect the other way; inactive = no such curve, though single readings can be large or run the other way.

How the values were obtained:
[1] = Quantitative High-Throughput drug screen in 47 multiple myeloma cell lines against the NCATS MIPE library collection: MOLP8_DSMZ cell viability assay (AID 1918977); also: nearly all actives have a fitted effect of over 45% in size; also: potency is read from the fitted curve at half-maximal effect;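 as to viability (% of control): 100% = DMSO-only wells and 0% = media-only wells without cells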
Outline: (§1)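 Cells were exposed to library compounds for 48 hours, after which ATP was measured by CellTiter-Glo. Signal was taken as median relative luminescence units.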

[2] = Quantitative High-Throughput drug screen in 47 multiple myeloma cell lines against the NCATS MIPE library collection: MM1S_ATCC cell viability assay (AID 1918980);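 also: 100% = wells with DMSO only and 0% = wells with media only; nearly all actives have a fitted effect of over 45% in size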
Outline: as §1

[3] = Quantitative High-Throughput drug screen in 47 multiple myeloma cell lines against the NCATS MIPE library collection: KMS28PE_JCRB cell viability assay (AID 1918983); also: potency is read from the fitted curve at half-maximal effect; nearly all actives have a fitted effect of over 35% in size
Outline: as §1

[4] = Quantitative High-Throughput drug screen in 47 multiple myeloma cell lines against the NCATS MIPE library collection: KMS34_JCRB cell viability assay (AID 1918985); details: KMS34 myeloma viability, CellTiter-Glo ATP luminescence, 48 h; viability, percent of control: at 45.8 µM (top of the series); also: nearly all actives have a fitted effect of over 40% in size; also: potency is read from the fitted curve at half-maximal effect;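 as to viability, percent of control: 100% = DMSO-only wells and 0% = media-only wells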
Outline: as §1

[5] = Quantitative High-Throughput drug screen in 47 multiple myeloma cell lines against the NCATS MIPE library collection: OCIMY7_PLB cell viability assay (AID 1918987); details: OCI-MY7 myeloma viability, CellTiter-Glo ATP, 48 h; viability (% of DMSO): at 45.8 µM unless noted; also: potency is read from the fitted curve at half-maximal effect; nearly all actives have a fitted effect of over 65% in size
Outline: as §1

[6] = Quantitative High-Throughput drug screen in 47 multiple myeloma cell lines against the NCATS MIPE library collection: OPM1_PLB cell viability assay (AID 1918989); details: CellTiter-Glo, 48 h; viability (% of control): at 45.8 µM; also: nearly all actives have a fitted effect of over 40% in size; also: potency is read from the fitted curve at half-maximal effect;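 as to viability (% of control): 100% = DMSO-only wells and 0% = media-only wells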
Outline: as §1

[7] = Quantitative High-Throughput drug screen in 47 multiple myeloma cell lines against the NCATS MIPE library collection: SKMM1_PLB cell viability assay (AID 1919863); details: SKMM1 myeloma viability, CellTiter-Glo ATP, 48 h; viability: hits give low values; also: nearly all actives have a fitted effect of over 35% in size; also: potency is read from the fitted curve at half-maximal effect
Outline: as §1

[8] = Quantitative High-Throughput drug screen in 47 multiple myeloma cell lines against the NCATS MIPE library collection: U266_ATCC cell viability assay (AID 1919864); also: nearly all actives have a fitted effect of over 35% in size; also: potency is read from the fitted curve at half-maximal effect;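 as to viability (% of DMSO control): 0% = media-only wells without cells and 100% = DMSO-only wells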
Outline: as §1

[9] = Quantitative High-Throughput drug screen in 47 multiple myeloma cell lines against the NCATS MIPE library collection: XG6_PLB cell viability assay (AID 1919865); details: XG6 myeloma viability, CellTiter-Glo ATP luminescence, 48 h; viability (% of control): at 45.8 µM; also: nearly all actives have a fitted effect of over 40% in size; also: potency is read from the fitted curve at half-maximal effect;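 as to viability (% of control): 100% = DMSO-only wells and 0% = media-only wells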
Outline: as §1

[10] = Quantitative High-Throughput drug screen in 47 multiple myeloma cell lines against the NCATS MIPE library collection: XG1_PLB cell viability assay (AID 1919866); also: nearly all actives have a fitted effect of over 35% in size; also: potency is read from the fitted curve at half-maximal effect
Outline: as §1

[11] = Quantitative High-Throughput drug screen in 47 multiple myeloma cell lines against the NCATS MIPE library collection: VP6_DJ cell viability assay (AID 1919867); details: ATP luminescence, 48 h; viability (% of DMSO): at 45.8 µM; also: nearly all actives have a fitted effect of over 40% in size; also: potency is read from the fitted curve at half-maximal effect;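 as to viability (% of DMSO): 100% = DMSO-only wells and 0% = wells with media alone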
Outline: as §1

[12] = Quantitative High-Throughput drug screen in 47 multiple myeloma cell lines against the NCATS MIPE library collection: UTMC2_PLB cell viability assay (AID 1919868); details: CellTiter-Glo ATP luminescence, 48 h; viability (% of DMSO control): at 45.8 µM; also: nearly all actives have a fitted effect of over 55% in size; also: potency is read from the fitted curve at half-maximal effect;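 as to viability (% of DMSO control): 100% = DMSO-only wells and 0% = media-only wells without cells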
Outline: as §1

[13] = Quantitative High-Throughput drug screen in 47 multiple myeloma cell lines against the NCATS MIPE library collection: OCIMY1_PLB cell viability assay (AID 1918979); also: nearly all actives have a fitted effect of over 35% in size; also: potency is read from the fitted curve at half-maximal effect;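 as to viability: 100% = DMSO-only wells and 0% = cell-free media-only wells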
Outline: as §1

[14] = Quantitative High-Throughput drug screen in 47 multiple myeloma cell lines against the NCATS MIPE library collection: L363_DSMZ cell viability assay (AID 1918984); details: L363 myeloma viability, CellTiter-Glo ATP luminescence, 48 h; viability (% of control): at 45.8 µM; also: nearly all actives have a fitted effect of over 40% in size; also: potency is read from the fitted curve at half-maximal effect
Outline: as §1

[15] = Quantitative High-Throughput drug screen in 47 multiple myeloma cell lines against the NCATS MIPE library collection: OCIMY5_PLB cell viability assay (AID 1918988); details: OCI-MY5 myeloma viability, ATP luminescence, 48 h; viability, % of control: at 45.8 µM; also: nearly all actives have a fitted effect of over 65% in size; also: potency is read from the fitted curve at half-maximal effect;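 as to viability, % of control: 100% = DMSO-treated wells and 0% = wells with media alone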
Outline: as §1

[16] = Quantitative High-Throughput drug screen in 47 multiple myeloma cell lines against the NCATS MIPE library collection: PE2_PLB cell viability assay (AID 1919869); details: PE2_PLB myeloma cells viability, ATP luminescence, 48 h; viability (% of control): at 45.8 µM; also: nearly all actives have a fitted effect of over 35% in size; also: potency is read from the fitted curve at half-maximal effect;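 as to viability (% of control): 100% = DMSO-only wells and 0% = cell-free media-only wells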
Outline: as §1

[17] = Quantitative High-Throughput drug screen in 47 multiple myeloma cell lines against the NCATS MIPE library collection: PCM6_Riken cell viability assay (AID 1919870); details: CellTiter-Glo ATP, 48 h; viability (% of control): at 45.8 µM; also: potency is read from the fitted curve at half-maximal effect; nearly all actives have a fitted effect of over 30% in size
Outline: as §1

[18] = Quantitative High-Throughput drug screen in 47 multiple myeloma cell lines against the NCATS MIPE library collection: MM1R_ATCC cell viability assay (AID 1918981)
Outline: as §1

[19] = Quantitative High-Throughput drug screen in 47 multiple myeloma cell lines against the NCATS MIPE library collection: LP1_DSMZ cell viability assay (AID 1918982)
Outline: as §1

CC(C[N+](C)(C)C)OC(N)=O (stereo not given)
inconclusive: Potency [3] 0.0418 µM [cytotoxic, full curve, poor fit] | Potency [4] 14.8 µM [cytotoxic, partial curve, poor fit] | Potency [5] 13.2 µM [cytotoxic, partial curve, poor fit] | Potency [7] 4.69 µM [cytotoxic, partial curve, poor fit] | Potency [9] 20.9 µM [cytotoxic, single point] | Potency [10] 0.0037 µM [cytotoxic, full curve, poor fit] | Potency [11] 37.2 µM [cytotoxic, single point] | Potency [12] 5.9 µM [cytotoxic, full curve, poor fit]
inactive: Potency [1] | Potency [2] | Potency [6] | Potency [8]

CCN1CCN(CC(=O)Nc2ccc(-c3cccc4c(=O)cc(N5CCOCC5)oc34)c3sc4ccccc4c23)CC1
active: Potency [1] 0.526 µM | Potency [13] 5.9 µM | Potency [14] 0.0332 µM | Potency [4] 2.09 µM | Potency [5] 0.0469 µM | Potency [11] 0.469 µM | Potency [12] 0.187 µM

CN1C(C(=O)Nc2ccccn2)=C(O)c2sc(Cl)cc2S1(=O)=O
inactive: Potency [13]
active: Potency [6] 4.18 µM
inconclusive: Potency [1] 2.64 µM [cytotoxic, full curve, poor fit] | Potency [14] 0.0026 µM [cytotoxic, full curve, poor fit] | Potency [7] 9.35 µM [cytotoxic, partial curve, poor fit]

O=C(O)CCC=CCC[C@@H]1[C@H](N2CCCCC2)[C@@H](O)C[C@@H]1OCc1ccc(-c2ccccc2)cc1
inconclusive: Potency [5] 14.8 µM [cytotoxic, partial curve, poor fit] | Potency [6] 6.62 µM [cytotoxic, full curve, poor fit] | Potency [11] 7.43 µM [cytotoxic, partial curve, poor fit] | Potency [17] 0.001 µM [cytotoxic]
inactive: Potency [1] | Potency [2] | Potency [14] | Potency [4] | Potency [15] | viability [7] 114% | Potency [8] | Potency [9] | Potency [12] | Potency [16]

CCOc1cc(C=C2C(=O)N(c3ccccc3)N=C2C)cc(Cl)c1OCC(=O)OC
active: Potency [18] 23.5 µM
inactive: Potency [1] | viability [7] 106%
inconclusive: Potency [4] 9.35 µM [cytotoxic, partial curve, poor fit] | Potency [15] 6.62 µM [cytotoxic, full curve, poor fit] | Potency [8] 20.9 µM [cytotoxic, partial curve, poor fit] | Potency [9] 8.33 µM [cytotoxic, partial curve, poor fit] | Potency [10] 23.5 µM [cytotoxic, partial curve] | Potency [11] 10.5 µM [cytotoxic, partial curve, poor fit] | Potency [12] 16.6 µM [cytotoxic, partial curve, poor fit] | Potency [16] 16.6 µM [cytotoxic, partial curve]

CN(C)CCN(C)C(=O)c1ccc(NC(=O)Nc2ccc(-c3nc(N4CCOCC4)c4ccn(CC(F)(F)F)c4n3)cc2)cc1
inconclusive: viability (% of control) [14] 6% [cytotoxic] | Potency [8] 2.35 µM [cytotoxic, partial curve] | Potency [9] 0.0093 µM [cytotoxic, full curve] | Potency [10] 0.0166 µM [cytotoxic, full curve] | Potency [17] 0.0662 µM [cytotoxic, full curve]
active: Potency [1] 0.0066 µM | Potency [13] 7.43 µM | Potency [4] 0.372 µM | Potency [15] 0.418 µM | Potency [16] 0.0074 µM

CC(C)(O)CC(=O)NCCn1ccc2ncnc(Nc3ccc(Oc4cccc(C(F)(F)F)c4)c(Cl)c3)c21
active: Potency [7] 23.5 µM | Potency [16] 23.5 µM
inactive: Potency [11]
inconclusive: Potency [1] 18.7 µM [cytotoxic, partial curve, poor fit] | Potency [18] 23.5 µM [cytotoxic, partial curve] | Potency [19] 37.2 µM [cytotoxic, single point] | Potency [14] 3.32 µM [cytotoxic, full curve, poor fit] | Potency [9] 0.418 µM [cytotoxic, full curve, poor fit] | Potency [10] 0.935 µM [cytotoxic, full curve, poor fit] | Potency [12] 33.2 µM [cytotoxic, partial curve, poor fit] | Potency [17] 13.2 µM [cytotoxic, partial curve, poor fit]

O=C(c1ccc(C(=O)N2CCC(N3CCCC3)CC2)c(Nc2ccccc2)c1)N1CCC(N2CCCC2)CC1
inactive: Potency [1] | Potency [14] | Potency [9] | Potency [10]
inconclusive: Potency [3] 5.9 µM [cytotoxic, partial curve, poor fit] | Potency [4] 4.69 µM [cytotoxic, full curve, poor fit] | Potency [5] 1.87 µM [cytotoxic, partial curve, poor fit] | Potency [15] 2.35 µM [cytotoxic, full curve, poor fit] | Potency [11] 0.0012 µM [rising, full curve, poor fit] | Potency [17] 0.0012 µM [rising, full curve, poor fit]
